In the supplement of paper PMC7661543:
The effect of the compound repeats well; differences between the knockouts mostly do not.

Tested on: SKBR3
Test: relative cell number vs DMSO control (72 h) (% of DMSO); higher = less growth inhibition (more cells)
Method: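 QMAP-Seq: a pool of 5 breast cancer cell lines (ZR-75-1, SKBR3, HCC-38, MDA-MB-231, BT-20), each carrying 12 doxycycline-inducible Cas9 sgRNA perturbations (11 knockouts plus non-targeting sgNT), was treated with compounds for 72 h at four 10-fold doses (10 nM-10 uM or 1 nM-1 uM range). Barcodes were amplified and sequenced, and cell number was interpolated from 293T spike-in standard curves. The result is expressed as % of the median of DMSO wells. Two biological replicates.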

CCC(C)SSc1ncc[nH]1 (configuration not stated) [PX12]
Conditions	relative cell number
sgRNA knockout: sgATF3, 10 nM	111
sgRNA knockout: sgATF3, 100 nM	111
sgRNA knockout: sgATF3, 1000 nM	108
sgRNA knockout: sgATF3, 10000 nM	53.2
sgRNA knockout: sgATF4, 10 nM	106
sgRNA knockout: sgATF4, 100 nM	114
sgRNA knockout: sgATF4, 1000 nM	84
sgRNA knockout: sgATF4, 10000 nM	52.4
sgRNA knockout: sgATF6, 10 nM	110
sgRNA knockout: sgATF6, 100 nM	103.6
sgRNA knockout: sgATF6, 1000 nM	91.9
sgRNA knockout: sgATF6, 10000 nM	46.6
sgRNA knockout: sgATG7, 10 nM	99.4
sgRNA knockout: sgATG7, 100 nM	130
sgRNA knockout: sgATG7, 1000 nM	108
sgRNA knockout: sgATG7, 10000 nM	55.6
sgRNA knockout: sgERN1, 10 nM	86.4
sgRNA knockout: sgERN1, 100 nM	96
sgRNA knockout: sgERN1, 1000 nM	90.02
sgRNA knockout: sgERN1, 10000 nM	57.4
sgRNA knockout: sgHSF1, 10 nM	101
sgRNA knockout: sgHSF1, 100 nM	91.3
sgRNA knockout: sgHSF1, 1000 nM	88.8
sgRNA knockout: sgHSF1, 10000 nM	49.1
sgRNA knockout: sgHSF2, 10 nM	107
sgRNA knockout: sgHSF2, 100 nM	109
sgRNA knockout: sgHSF2, 1000 nM	92.7
sgRNA knockout: sgHSF2, 10000 nM	45.9
sgRNA knockout: sgKEAP1, 10 nM	104
sgRNA knockout: sgKEAP1, 100 nM	102
sgRNA knockout: sgKEAP1, 1000 nM	83.3
sgRNA knockout: sgKEAP1, 10000 nM	53.2
sgRNA knockout: sgNFE2L2, 10 nM	98.9
sgRNA knockout: sgNFE2L2, 100 nM	86
sgRNA knockout: sgNFE2L2, 1000 nM	92.8
sgRNA knockout: sgNFE2L2, 10000 nM	50.1
sgRNA knockout: sgSLC35F2, 10 nM	106
sgRNA knockout: sgSLC35F2, 100 nM	125
sgRNA knockout: sgSLC35F2, 1000 nM	101
sgRNA knockout: sgSLC35F2, 10000 nM	43.6
sgRNA knockout: sgXBP1, 10 nM	103
sgRNA knockout: sgXBP1, 100 nM	113
sgRNA knockout: sgXBP1, 1000 nM	96.8
sgRNA knockout: sgXBP1, 10000 nM	46.6

Cc1ncc([N+](=O)[O-])n1CC(O)CCl (configuration not stated) [Ornidazole]
Conditions	relative cell number
sgRNA knockout: sgATF3, 10 nM	100
sgRNA knockout: sgATF3, 100 nM	85.9
sgRNA knockout: sgATF3, 1000 nM	100
sgRNA knockout: sgATF3, 10000 nM	68.1
sgRNA knockout: sgATF4, 10 nM	84
sgRNA knockout: sgATF4, 100 nM	92.1
sgRNA knockout: sgATF4, 1000 nM	102
sgRNA knockout: sgATF4, 10000 nM	80.7
sgRNA knockout: sgATF6, 10 nM	82.9
sgRNA knockout: sgATF6, 100 nM	99.7
sgRNA knockout: sgATF6, 1000 nM	86.1
sgRNA knockout: sgATF6, 10000 nM	116
sgRNA knockout: sgATG7, 10 nM	86.4
sgRNA knockout: sgATG7, 100 nM	104
sgRNA knockout: sgATG7, 1000 nM	94.9
sgRNA knockout: sgATG7, 10000 nM	97.08
sgRNA knockout: sgERN1, 10 nM	87.5
sgRNA knockout: sgERN1, 100 nM	113
sgRNA knockout: sgERN1, 1000 nM	107
sgRNA knockout: sgERN1, 10000 nM	96
sgRNA knockout: sgHSF1, 10 nM	107
sgRNA knockout: sgHSF1, 100 nM	96.5
sgRNA knockout: sgHSF1, 1000 nM	118
sgRNA knockout: sgHSF1, 10000 nM	96.5
sgRNA knockout: sgHSF2, 10 nM	97.6
sgRNA knockout: sgHSF2, 100 nM	95.3
sgRNA knockout: sgHSF2, 1000 nM	96
sgRNA knockout: sgHSF2, 10000 nM	109
sgRNA knockout: sgKEAP1, 10 nM	85.6
sgRNA knockout: sgKEAP1, 100 nM	87.8
sgRNA knockout: sgKEAP1, 1000 nM	97.5
sgRNA knockout: sgKEAP1, 10000 nM	106
sgRNA knockout: sgNFE2L2, 10 nM	92.6
sgRNA knockout: sgNFE2L2, 100 nM	104
sgRNA knockout: sgNFE2L2, 1000 nM	83.8
sgRNA knockout: sgNFE2L2, 10000 nM	85.4
sgRNA knockout: sgSLC35F2, 10 nM	101
sgRNA knockout: sgSLC35F2, 100 nM	94.8
sgRNA knockout: sgSLC35F2, 1000 nM	81.8
sgRNA knockout: sgSLC35F2, 10000 nM	99.7
sgRNA knockout: sgXBP1, 10 nM	77.6
sgRNA knockout: sgXBP1, 100 nM	101
sgRNA knockout: sgXBP1, 1000 nM	97.7
sgRNA knockout: sgXBP1, 10000 nM	81.9

Nc1nc(OCc2cc(Br)cs2)c2[nH]cnc2n1 [Lomeguatrib]
Conditions	relative cell number
sgRNA knockout: sgATF3, 10 nM	108
sgRNA knockout: sgATF3, 100 nM	105
sgRNA knockout: sgATF3, 1000 nM	71.4
sgRNA knockout: sgATF3, 10000 nM	96.9
sgRNA knockout: sgATF4, 10 nM	90.3
sgRNA knockout: sgATF4, 100 nM	90.4
sgRNA knockout: sgATF4, 1000 nM	99.9
sgRNA knockout: sgATF4, 10000 nM	92.6
sgRNA knockout: sgATF6, 10 nM	95.3
sgRNA knockout: sgATF6, 100 nM	91
sgRNA knockout: sgATF6, 1000 nM	114
sgRNA knockout: sgATF6, 10000 nM	78.4
sgRNA knockout: sgATG7, 10 nM	99.3
sgRNA knockout: sgATG7, 100 nM	87.4
sgRNA knockout: sgATG7, 1000 nM	98.5
sgRNA knockout: sgATG7, 10000 nM	101
sgRNA knockout: sgERN1, 10 nM	96.3
sgRNA knockout: sgERN1, 100 nM	95.9
sgRNA knockout: sgERN1, 1000 nM	100
sgRNA knockout: sgERN1, 10000 nM	81.6
sgRNA knockout: sgHSF1, 10 nM	91.5
sgRNA knockout: sgHSF1, 100 nM	83.8
sgRNA knockout: sgHSF1, 1000 nM	102
sgRNA knockout: sgHSF1, 10000 nM	63.5
sgRNA knockout: sgHSF2, 10 nM	96.8
sgRNA knockout: sgHSF2, 100 nM	88.9
sgRNA knockout: sgHSF2, 1000 nM	95.4
sgRNA knockout: sgHSF2, 10000 nM	74
sgRNA knockout: sgKEAP1, 10 nM	93.8
sgRNA knockout: sgKEAP1, 100 nM	94.9
sgRNA knockout: sgKEAP1, 1000 nM	90.6
sgRNA knockout: sgKEAP1, 10000 nM	90.9
sgRNA knockout: sgNFE2L2, 10 nM	84.9
sgRNA knockout: sgNFE2L2, 100 nM	114
sgRNA knockout: sgNFE2L2, 1000 nM	86.4
sgRNA knockout: sgNFE2L2, 10000 nM	81.4
sgRNA knockout: sgSLC35F2, 10 nM	109.2
sgRNA knockout: sgSLC35F2, 100 nM	98.1
sgRNA knockout: sgSLC35F2, 1000 nM	96.8
sgRNA knockout: sgSLC35F2, 10000 nM	85.7
sgRNA knockout: sgXBP1, 10 nM	99.1
sgRNA knockout: sgXBP1, 100 nM	88.5
sgRNA knockout: sgXBP1, 1000 nM	70
sgRNA knockout: sgXBP1, 10000 nM	87.3
